Taken from: PubChem BioAssay AID1259254 (NCATS, 2017)

Aim: 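Finding genes that stop cells copying their DNA twice in one cycle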 (primary screen)
Cells: human HCT116 colorectal cancer cells
Knock-down reagent: single siRNA against human genes
Duration: 3 days
Measurement: 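Imaged Hoechst DNA stain sorts each cell into a cycle phase by DNA amount; per plate, G2 fraction set to 0% for non-targeting and 100% for GMNN siRNA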
Scale: G2 robust z-score: higher = more G2 cells, more excess DNA replication
Rule for the call: 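An siRNA counts as active if its G2 robust z-score lies at least 5 MADs above the screen median; here such calls match roughly 38% of GMNN control or more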
The whole screen tested about 59,000 reagents; this is an unselected part. Of all reagents, about 1,550 (2.6%) got an active call. 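G2 share is only a proxy for re-replication; each gene was hit by three separate siRNAs, and active genes were retested.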 Reagents against one gene are numbered here. Not all columns of the deposit are shown. Not stated in the record: the amount of reagent.

G2 robust z-score, by target gene and reagent
DCDC2: #1 1.01 inactive; #2 -0.0409 inactive; #3 -0.0244 inactive
SCAMP1: #1 0.52 inactive; #2 0.129 inactive; #3 0.615 inactive
ZNF16: #1 -0.438 inactive; #2 0.518 inactive; #3 1.35 inactive
PIGYP1: #1 0.0491 inactive; #2 0.772 inactive; #3 -0.389 inactive
PDGFRA: #1 -1.1 inactive; #2 -0.368 inactive; #3 -0.879 inactive
TCP11: #1 -1.29 inactive; #2 0.963 inactive; #3 -0.174 inactive
CD200: #1 -0.789 inactive; #2 -0.83 inactive; #3 -0.108 inactive
H1-5: #1 3.13 inactive; #2 -0.762 inactive; #3 0.341 inactive
NT5M: #1 0.847 inactive; #2 0.249 inactive; #3 -0.319 inactive
AOAH: #1 4.37 inactive; #2 0.477 inactive; #3 -1.03 inactive
INTS10: #1 1.47 inactive; #2 -0.206 inactive; #3 0.711 inactive
NCF2: #1 -0.997 inactive; #2 2.27 inactive; #3 1.76 inactive
SLC16A1: #1 0.0449 inactive; #2 -0.243 inactive; #3 0.174 inactive
CNOT9: #1 -0.547 inactive; #2 0.00961 inactive; #3 -0.678 inactive

A run of entries taken from the entries so far, as a working copy:
G2 robust z-score, by target gene and reagent
AOAH: #3 -1.03 inactive
INTS10: #1 1.47 inactive; #2 -0.206 inactive; #3 0.711 inactive
NCF2: #1 -0.997 inactive; #2 2.27 inactive; #3 1.76 inactive
SLC16A1: #1 0.0449 inactive; #2 -0.243 inactive; #3 0.174 inactive

Further reagents follow.
G2 robust z-score, by target gene and reagent
CFAP20DC: #1 0.167 inactive; #2 -0.726 inactive; #3 0.353 inactive
STAT6: #1 -0.244 inactive; #2 2.36 inactive; #3 -1.01 inactive
TBC1D16: #1 2.41 inactive; #2 -0.462 inactive; #3 -0.532 inactive
RAB40B: #1 -0.863 inactive; #2 -0.525 inactive; #3 3.72 inactive
CCDC106: #1 -0.148 inactive; #2 -0.902 inactive; #3 -0.92 inactive
SHTN1: #1 -0.539 inactive; #2 0.534 inactive; #3 -0.693 inactive
PCOLCE: #1 -0.142 inactive; #2 -1.38 inactive; #3 -0.738 inactive
CHKA: #1 0.908 inactive; #2 -0.0178 inactive; #3 -0.669 inactive
ATP1B4: #1 -0.954 inactive; #2 -0.781 inactive; #3 4.08 inactive
